Experimental data published in the supplement of paper PMC10849652.
Some of the results follow.

The chains behind the UniProt entries cited, without tags or fusion partners. Where a name states a change or a piece, a line headed by the entry shows the natural chain unless it says otherwise.
UniProt Q16254: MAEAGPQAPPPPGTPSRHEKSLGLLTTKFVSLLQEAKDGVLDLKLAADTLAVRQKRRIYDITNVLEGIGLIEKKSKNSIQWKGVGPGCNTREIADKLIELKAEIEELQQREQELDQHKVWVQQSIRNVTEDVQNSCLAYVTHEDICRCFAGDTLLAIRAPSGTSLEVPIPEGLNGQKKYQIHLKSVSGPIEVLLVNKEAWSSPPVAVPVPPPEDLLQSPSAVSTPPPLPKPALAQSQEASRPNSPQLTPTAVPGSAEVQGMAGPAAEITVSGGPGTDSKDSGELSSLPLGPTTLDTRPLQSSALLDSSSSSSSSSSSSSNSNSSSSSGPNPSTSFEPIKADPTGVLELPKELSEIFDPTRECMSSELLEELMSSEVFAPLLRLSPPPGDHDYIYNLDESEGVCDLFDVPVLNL
UniProt Q99543: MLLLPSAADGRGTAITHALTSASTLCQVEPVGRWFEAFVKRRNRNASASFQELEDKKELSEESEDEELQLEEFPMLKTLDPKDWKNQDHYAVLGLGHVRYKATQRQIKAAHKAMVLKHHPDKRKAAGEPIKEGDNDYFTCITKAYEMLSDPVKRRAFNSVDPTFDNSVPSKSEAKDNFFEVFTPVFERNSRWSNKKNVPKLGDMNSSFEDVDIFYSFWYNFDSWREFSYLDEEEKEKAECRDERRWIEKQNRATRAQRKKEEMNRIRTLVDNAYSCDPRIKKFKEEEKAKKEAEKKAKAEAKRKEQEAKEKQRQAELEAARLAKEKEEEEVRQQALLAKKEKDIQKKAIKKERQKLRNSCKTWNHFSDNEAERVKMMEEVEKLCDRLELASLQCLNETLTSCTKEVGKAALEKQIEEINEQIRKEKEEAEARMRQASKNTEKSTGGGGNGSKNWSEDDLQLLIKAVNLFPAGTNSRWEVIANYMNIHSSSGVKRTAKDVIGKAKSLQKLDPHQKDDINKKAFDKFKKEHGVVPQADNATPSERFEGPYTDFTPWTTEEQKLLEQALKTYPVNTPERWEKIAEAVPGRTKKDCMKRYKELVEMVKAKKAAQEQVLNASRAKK
UniProt Q9H3Z4: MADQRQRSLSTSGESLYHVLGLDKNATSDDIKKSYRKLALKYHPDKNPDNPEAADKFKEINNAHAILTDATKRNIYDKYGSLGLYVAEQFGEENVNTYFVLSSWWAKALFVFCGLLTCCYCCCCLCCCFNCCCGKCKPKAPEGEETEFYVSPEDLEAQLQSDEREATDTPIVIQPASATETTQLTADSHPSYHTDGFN
UniProt Q92611: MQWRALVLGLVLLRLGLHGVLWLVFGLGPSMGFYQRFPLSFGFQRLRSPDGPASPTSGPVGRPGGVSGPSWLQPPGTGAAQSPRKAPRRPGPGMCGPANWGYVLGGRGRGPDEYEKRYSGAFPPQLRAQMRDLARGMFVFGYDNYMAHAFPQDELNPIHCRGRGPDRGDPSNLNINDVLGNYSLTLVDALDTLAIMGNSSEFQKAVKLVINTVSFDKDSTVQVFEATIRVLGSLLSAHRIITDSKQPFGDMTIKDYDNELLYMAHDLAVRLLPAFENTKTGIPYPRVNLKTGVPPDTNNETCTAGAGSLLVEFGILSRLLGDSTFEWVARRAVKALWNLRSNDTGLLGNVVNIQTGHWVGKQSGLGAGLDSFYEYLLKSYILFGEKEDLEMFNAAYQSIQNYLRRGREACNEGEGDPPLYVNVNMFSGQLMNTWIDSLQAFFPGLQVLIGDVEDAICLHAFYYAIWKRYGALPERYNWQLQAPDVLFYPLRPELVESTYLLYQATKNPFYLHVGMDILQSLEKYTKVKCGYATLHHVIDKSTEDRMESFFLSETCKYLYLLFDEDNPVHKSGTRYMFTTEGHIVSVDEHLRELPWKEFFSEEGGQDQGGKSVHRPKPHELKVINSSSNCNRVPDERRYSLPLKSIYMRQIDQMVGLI
UniProt Q99615: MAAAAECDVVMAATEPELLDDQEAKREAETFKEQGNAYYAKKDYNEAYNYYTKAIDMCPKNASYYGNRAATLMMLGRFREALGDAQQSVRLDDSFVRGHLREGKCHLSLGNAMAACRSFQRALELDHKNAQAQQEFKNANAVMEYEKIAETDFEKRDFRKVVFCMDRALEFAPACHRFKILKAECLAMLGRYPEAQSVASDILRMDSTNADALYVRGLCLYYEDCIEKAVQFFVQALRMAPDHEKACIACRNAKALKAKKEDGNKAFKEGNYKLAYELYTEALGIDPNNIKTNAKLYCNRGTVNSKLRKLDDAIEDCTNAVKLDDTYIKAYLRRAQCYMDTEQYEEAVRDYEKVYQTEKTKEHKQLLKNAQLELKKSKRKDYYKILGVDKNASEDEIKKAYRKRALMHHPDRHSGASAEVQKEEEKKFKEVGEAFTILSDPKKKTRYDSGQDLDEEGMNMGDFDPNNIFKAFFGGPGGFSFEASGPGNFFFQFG
UniProt O00115: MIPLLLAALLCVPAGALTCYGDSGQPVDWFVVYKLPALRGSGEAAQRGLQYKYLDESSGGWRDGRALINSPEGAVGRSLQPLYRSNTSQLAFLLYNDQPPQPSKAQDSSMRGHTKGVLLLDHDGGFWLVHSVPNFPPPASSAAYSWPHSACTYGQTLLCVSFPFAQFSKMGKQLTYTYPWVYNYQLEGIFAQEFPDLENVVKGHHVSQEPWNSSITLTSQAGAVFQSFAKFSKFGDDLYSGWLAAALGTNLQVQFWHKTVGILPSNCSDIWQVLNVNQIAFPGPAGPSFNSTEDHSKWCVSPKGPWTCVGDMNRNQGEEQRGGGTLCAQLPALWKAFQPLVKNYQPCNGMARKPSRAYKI
UniProt Q16610: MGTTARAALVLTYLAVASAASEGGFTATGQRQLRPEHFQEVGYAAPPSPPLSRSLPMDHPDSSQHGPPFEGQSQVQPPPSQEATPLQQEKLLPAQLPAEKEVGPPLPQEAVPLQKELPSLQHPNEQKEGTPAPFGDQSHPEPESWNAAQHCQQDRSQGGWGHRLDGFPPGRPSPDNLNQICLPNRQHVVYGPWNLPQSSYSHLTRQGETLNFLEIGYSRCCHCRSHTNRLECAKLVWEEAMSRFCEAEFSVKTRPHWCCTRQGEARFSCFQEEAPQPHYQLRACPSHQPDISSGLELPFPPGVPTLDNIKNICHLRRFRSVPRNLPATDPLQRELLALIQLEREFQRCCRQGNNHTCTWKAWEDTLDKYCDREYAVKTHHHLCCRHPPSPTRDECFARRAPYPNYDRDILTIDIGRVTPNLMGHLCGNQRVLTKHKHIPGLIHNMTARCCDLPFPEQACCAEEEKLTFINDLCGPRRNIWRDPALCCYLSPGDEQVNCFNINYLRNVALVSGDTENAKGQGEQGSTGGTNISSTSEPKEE
UniProt P60981: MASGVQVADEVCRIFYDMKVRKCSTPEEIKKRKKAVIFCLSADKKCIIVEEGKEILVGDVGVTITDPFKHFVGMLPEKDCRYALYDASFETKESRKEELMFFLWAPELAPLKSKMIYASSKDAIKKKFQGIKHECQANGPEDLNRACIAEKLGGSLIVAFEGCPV
UniProt Q96N67: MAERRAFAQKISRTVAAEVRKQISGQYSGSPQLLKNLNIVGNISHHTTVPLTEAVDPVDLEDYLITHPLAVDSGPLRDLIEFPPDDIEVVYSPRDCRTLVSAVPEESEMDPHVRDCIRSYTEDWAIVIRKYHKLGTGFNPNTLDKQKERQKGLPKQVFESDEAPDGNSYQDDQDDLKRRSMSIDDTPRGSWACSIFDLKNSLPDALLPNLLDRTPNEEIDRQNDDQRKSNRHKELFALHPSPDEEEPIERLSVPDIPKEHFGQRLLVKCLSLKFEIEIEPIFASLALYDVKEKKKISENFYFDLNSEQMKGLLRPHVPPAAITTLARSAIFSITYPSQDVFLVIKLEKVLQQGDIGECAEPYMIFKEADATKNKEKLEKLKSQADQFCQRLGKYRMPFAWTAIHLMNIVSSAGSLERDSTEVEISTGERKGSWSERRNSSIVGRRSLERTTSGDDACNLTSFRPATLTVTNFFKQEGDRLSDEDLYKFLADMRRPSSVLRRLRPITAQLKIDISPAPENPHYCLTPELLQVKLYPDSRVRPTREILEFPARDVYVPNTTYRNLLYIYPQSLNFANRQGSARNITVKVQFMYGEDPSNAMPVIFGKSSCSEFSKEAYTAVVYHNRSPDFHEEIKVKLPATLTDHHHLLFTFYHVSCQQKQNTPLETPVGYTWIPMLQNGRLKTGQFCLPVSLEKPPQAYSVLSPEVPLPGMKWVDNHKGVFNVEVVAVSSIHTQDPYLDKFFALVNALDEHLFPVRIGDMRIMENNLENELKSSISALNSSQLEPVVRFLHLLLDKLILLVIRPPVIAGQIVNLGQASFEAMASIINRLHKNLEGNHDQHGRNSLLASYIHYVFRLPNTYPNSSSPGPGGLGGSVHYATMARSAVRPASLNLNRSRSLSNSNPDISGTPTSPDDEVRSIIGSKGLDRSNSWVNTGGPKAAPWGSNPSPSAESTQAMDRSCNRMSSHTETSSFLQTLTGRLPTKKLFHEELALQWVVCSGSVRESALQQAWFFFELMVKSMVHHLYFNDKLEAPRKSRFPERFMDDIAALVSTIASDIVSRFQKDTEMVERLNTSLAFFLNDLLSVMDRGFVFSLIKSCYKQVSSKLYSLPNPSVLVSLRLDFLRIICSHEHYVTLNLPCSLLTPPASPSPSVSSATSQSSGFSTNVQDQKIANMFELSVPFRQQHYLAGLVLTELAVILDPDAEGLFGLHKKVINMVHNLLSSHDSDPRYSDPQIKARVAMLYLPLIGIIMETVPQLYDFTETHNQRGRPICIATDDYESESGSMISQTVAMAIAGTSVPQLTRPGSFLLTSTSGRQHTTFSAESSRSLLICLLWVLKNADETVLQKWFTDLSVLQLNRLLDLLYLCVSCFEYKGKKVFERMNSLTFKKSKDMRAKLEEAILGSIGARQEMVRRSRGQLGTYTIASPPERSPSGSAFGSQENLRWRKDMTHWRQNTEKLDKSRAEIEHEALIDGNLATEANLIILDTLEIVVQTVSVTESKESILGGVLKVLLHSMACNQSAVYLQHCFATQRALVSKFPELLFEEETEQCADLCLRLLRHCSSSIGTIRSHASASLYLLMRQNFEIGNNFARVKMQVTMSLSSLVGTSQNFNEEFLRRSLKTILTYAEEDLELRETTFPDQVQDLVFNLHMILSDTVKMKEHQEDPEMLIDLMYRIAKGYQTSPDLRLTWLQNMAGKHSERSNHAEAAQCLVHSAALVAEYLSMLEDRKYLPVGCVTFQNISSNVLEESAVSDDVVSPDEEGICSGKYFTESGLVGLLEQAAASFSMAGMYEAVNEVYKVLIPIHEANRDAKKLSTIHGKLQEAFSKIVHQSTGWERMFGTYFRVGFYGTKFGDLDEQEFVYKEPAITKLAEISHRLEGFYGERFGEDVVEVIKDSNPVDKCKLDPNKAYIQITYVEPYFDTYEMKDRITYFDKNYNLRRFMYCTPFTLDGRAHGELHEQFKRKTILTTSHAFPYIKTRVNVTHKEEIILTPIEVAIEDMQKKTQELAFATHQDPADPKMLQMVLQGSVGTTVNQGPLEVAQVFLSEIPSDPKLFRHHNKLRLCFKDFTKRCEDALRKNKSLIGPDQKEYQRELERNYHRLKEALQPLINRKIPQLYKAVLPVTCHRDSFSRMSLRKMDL
UniProt Q9Y295: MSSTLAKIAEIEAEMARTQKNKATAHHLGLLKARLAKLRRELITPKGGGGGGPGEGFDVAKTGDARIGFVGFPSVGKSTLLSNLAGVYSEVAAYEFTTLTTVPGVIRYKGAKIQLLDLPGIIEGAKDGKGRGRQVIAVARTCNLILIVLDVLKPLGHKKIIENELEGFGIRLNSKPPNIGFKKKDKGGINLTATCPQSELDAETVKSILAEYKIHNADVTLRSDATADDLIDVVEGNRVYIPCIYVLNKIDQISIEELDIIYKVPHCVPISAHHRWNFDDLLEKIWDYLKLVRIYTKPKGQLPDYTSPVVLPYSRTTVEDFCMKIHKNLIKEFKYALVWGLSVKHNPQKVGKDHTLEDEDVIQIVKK
UniProt Q96F86: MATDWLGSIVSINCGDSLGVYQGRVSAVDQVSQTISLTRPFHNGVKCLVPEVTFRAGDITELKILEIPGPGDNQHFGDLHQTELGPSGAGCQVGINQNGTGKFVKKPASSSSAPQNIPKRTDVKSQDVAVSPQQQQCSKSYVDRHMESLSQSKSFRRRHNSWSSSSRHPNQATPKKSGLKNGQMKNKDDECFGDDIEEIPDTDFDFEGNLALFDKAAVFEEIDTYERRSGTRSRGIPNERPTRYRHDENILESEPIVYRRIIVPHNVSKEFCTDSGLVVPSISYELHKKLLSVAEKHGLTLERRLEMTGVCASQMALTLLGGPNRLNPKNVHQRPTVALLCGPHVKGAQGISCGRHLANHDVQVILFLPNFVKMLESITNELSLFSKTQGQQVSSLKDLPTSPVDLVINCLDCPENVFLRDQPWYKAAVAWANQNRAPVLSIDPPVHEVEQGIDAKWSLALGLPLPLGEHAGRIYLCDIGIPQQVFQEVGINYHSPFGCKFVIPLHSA

compound: C1CCN(C1)C(=O)NC2=CC=CC(=C2)NC3=NC=C(C(=N3)NCCC4=CN=CN4)Br; experiment: log2 fold change, soluble protein after heating vs DMSO (PISA); higher = thermal stabilisation; K562 cells, 10 uM, 30 min; active = over 0.2 and 3.5 SD of the protein, either way, in both replicates (recomputed)
Outline: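 K562 cells at 2×10^6 cells/mL were exposed to 10 μM compound for 30 min, then aliquots were heated for 3 min across 48°C-58°C, pooled, and extracted in PBS containing 0.5% NP-40 at 4°C. The supernatant after 21,000xg for 90 min was taken as soluble protein and measured by TMTpro 16plex LC-MS/MS with channel sums equalised. Thermal stability is reported relative to control samples, with values from duplicates. Fold changes are given on a log2 scale.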

log2 fold change, inactive:
DNAJC13 (UniProt O75165) 0.028
DYRK1A isoform 2 (UniProt Q13627) -0.093
DRAP1 isoform 2 (UniProt Q14919) 0.019
E2F4 (UniProt Q16254) -0.071
DNAJC2 (UniProt Q99543) -0.101
DNAJC5 (UniProt Q9H3Z4) 0.072
EDEM1 (UniProt Q92611) 0
DNAJC7 (UniProt Q99615) 0.005
DNASE2 (UniProt O00115) -0.013
ECM1 isoform 4 (UniProt Q16610) -0.045
DUT (UniProt P33316) 0.008
EDC4 (UniProt Q6P2E9) -0.023
DSTN (UniProt P60981) 0.037
DOCK7 (UniProt Q96N67) 0
DSC2 (UniProt Q02487) 0.054
DUSP3 (UniProt P51452) -0.073
DPH7 (UniProt Q9BTV6) 0.008
DRG1 (UniProt Q9Y295) -0.015
EDC3 (UniProt Q96F86) -0.195
ECH1 (UniProt Q13011) -0.028
DNAJB14 (UniProt Q8TBM8) -0.102
DST (UniProt Q03001) 0.026
DSG2 (UniProt Q14126) -0.019

For reference, some entries already given.
log2 fold change, inactive:
DNAJC5 (UniProt Q9H3Z4) 0.072
EDEM1 (UniProt Q92611) 0
